# Library screen at single concentrations

The values are deposited in ChEMBL (CHEMBL3988442, “University of Dundee, Small-Polar-MMV Screening Library” (2021)).

Values are the deposited “Percent Effect”, in %.
The controls that fix the scale are not given in the record; negative values are as filed.
Compounds were drawn at random from those tested, without regard to their results.
Two or more numbers in one place are separate tests of the same structure; such repeats can differ widely.
A dash means the value is not listed here; it may have been measured.

T. brucei: 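Whole-parasite assay of Trypanosoma brucei over 72 hours; the read-out is not stated. Tested at 30 µM. Higher reads as stronger inhibition (inferred: compounds with an IC50 in retests scored well above the rest). Values scatter widely below zero; nearly all retest evidence comes from the higher of the two concentrations used. Size under these conditions: about 64,000 compounds, about 940 of them at 50% or above in at least one test.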
Toxoplasma: 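Assay of Toxoplasma gondii numbers, read through their beta-galactosidase reporter with a colour substrate. Tested at 10 µM. The record gives no direction; the compounds picked for IC50 retests had high values, so higher reads as fewer parasites. Size under these conditions: about 67,000 compounds, about 260 of them at 50% or above in at least one test.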
Leishmania in macrophages: 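Cell assay of Leishmania donovani living inside macrophages; the read-out is not stated. Compounds at 30 µM. Direction is inferred from retests: higher values go with stronger inhibition. About 69,000 compounds were tested under these conditions; 1.5% (about 1,000) showed 50% or more at least once.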

Compound,T. brucei,Toxoplasma,Leishmania in macrophages
Cc1ccc(CN2CCN(c3cncc(N(C)C)n3)CC2=O)cc1C,18.96%,-43.17%,-10.49%
CC1CCN(S(=O)(=O)N2CCn3cccc3C2C)CC1 (stereo not given),-6.641%,-29.83%,21.85%
CCn1cnc(NC(=O)N2CCCC(c3ccccc3)CC2)n1 (stereo not given),-21.97%,-2.378%,17.46%
CC(C)(C)c1cn2nc(N3CCCCC3Cn3cncn3)sc2n1 (stereo not given),-42.56%,1.347%,-131%
O=c1ccc(-c2cccs2)nn1CN1CCOC(c2ccccc2)C1 (stereo not given),-36.63%,-0.6846%,10.86%
O=C(c1cccnc1O)N(Cc1ccsc1)CC1CCCO1 (stereo not given),-6.093%,-3.001%,21.05%
CCC(Sc1ncc(CO)n1C)c1ccccc1 (stereo not given),-,-8.846%,-21.39%
CCS(=O)(=O)CC(=O)NC(C)c1ccc(OCCC(C)C)cc1 (stereo not given),-12.82%,12.3%,35.61%
Cc1cn2c(CN(C)C(=O)c3cnc(N)c(Cl)c3)c(C)nc2s1,-42.72%,-10.39%,9.24%
CCS(=O)(=O)c1cccc(C(=O)Nc2cccc3c2C(=O)N(C)C3=O)c1,-9.999%,15.76%,6.546%
CCc1nnc(CN2CCC3(CCC(=O)N(C4CCCC4)C3)CC2)o1,-48.78%,-8.494%,11.77%
[H][C@@]12CS(=O)(=O)C[C@]1([H])N(C(=O)c1snnc1C)CCN2CC=C(C)C,-21.29%,0.1276%,-3.613%
COc1ccccc1CN1CC(O)CN(C(=O)OCC(C)C)CC1=O (stereo not given),-13.69%,9.475%,21.57%
CCn1nccc1CNc1[nH]cnc2nncc1-2,-24.51%,3.229%,22.7%
CC(=O)C1(c2ccccc2)CCN(C(=O)CC2CNCCO2)CC1 (stereo not given),-4.286%,3.335%,2.555%
O=C(CCC(F)(F)F)N1CCCC2(CCC(=O)N(CC3CC3)C2)C1 (stereo not given),-12.23%,15.15%,-0.5078%
O=c1c(NCCc2ccc(O)cc2)c(NCc2ccccn2)c1=O,-10.45%,6.554%,22.62%
CCNc1ncc2c(n1)CN(c1ccc(CC)cc1)C2=O,-19.29%,62.15%,14.99%
O=C(CCN1C(=O)CCC1=O)NCC1(c2c(F)cccc2F)CCCC1,-,5.263%,33.26%
CN(Cc1cnn(-c2ccccc2)n1)CC1CCCN1c1cccnn1 (stereo not given),28.62%,-3.829%,28.68%
Cc1n[nH]c(C)c1CCCNCc1cn(CCC(N)=O)c2ccccc12,-14.92%,-0.146%,6.531%
CC1CN(C(=O)c2nccnc2N)c2ccc(F)cc2O1 (stereo not given),-15.08%,-4.851%,8.685%
O=C(O)C(F)(F)F.[H][C@@]12CN(C(=O)CC)CCC[C@]1(C(=O)N(C)C)CN(c1ccccn1)C2,-3.318%,-2.166%,5.052%
CC(c1nc(C2CC2)no1)N(C)Cc1ccc(C#N)cc1 (stereo not given),-31.65%,-1.163%,13.58%
O=C1CC(c2ccsc2)c2sc(C(=O)O)c(-c3ccc(F)cc3)c2N1 (stereo not given),-12.43%,-9.75%,10.45%
CCNC(=O)c1c2c(N3CCN(C)CC3)ncnc2n2ccccc12,-9.633%,6.599%,27.76%
CN(CC(=O)N1CCC(OCc2cccnc2)CC1)c1ccccc1,-3.064%,-24.77%,31.36%
Cc1nnc(NC(=O)NCCCN2CCC(C(N)=O)CC2)s1,-56.95%,-5.912%,-60.69%
CC(NCc1cccc(C#N)c1)c1ccccn1.Cl (stereo not given),-13.99%,-31.11%,6.827%
CCCc1cnc(C)nc1N1CCC(Cc2cccc(C(N)=O)c2)C1 (stereo not given),-64.35%,17.63%,5.789%
CC(C)N1CCOCC2(CCCN(C(=O)c3cn(C)cn3)C2)C1.O=C(O)C(F)(F)F (stereo not given),-6.053%,-5.577%,-1.372%
Cc1cnn(CC2CN(CC(=O)Nc3ccnn3C(C)C)CCO2)c1 (stereo not given),-15.92%,7.304%,22.27%
COc1cccc(CN(C)Cc2nc(C(C)C)no2)c1,-1.446%,9.63%,-15.51%
NC(=O)CCN(CC(=O)NCc1cccs1)c1ccc(F)cc1,-38.12%,-,-10.14%
CS(=O)(=O)NCc1ncn2c1CN(Cc1cccs1)CCC2.O=C(O)C(F)(F)F.O=C(O)C(F)(F)F,32.32%,-13.24%,15.35%
COc1ccccc1N(C)Cc1nc2c(cnn2C)c(=O)[nH]1,-17.26%,1.872%,-4.506%
CCC1CCCCN1CCNC(=O)N1CCN(Cc2ccon2)CC1 (stereo not given),20.59%,3.605%,4.79%
CCCc1noc(C[S+]([O-])CC(=O)NCc2ccccc2)n1 (stereo not given),-72.91%,3.442%,-3.615%
O=C(C1CC1)N1CCCC1C1CCN(Cc2ccccc2)CC1 (stereo not given),17.93%,3.067%,35.25%
CC(=O)N1CCCC(C(=O)NCCc2nc(Cc3ccccc3)no2)C1 (stereo not given),-7.141%,8.783%,13.25%
CC(C)[C@@H](C)NC1CCN(c2ccc(-n3ccnc3)cc2)CC1,-57.61%,4.856%,36.57%
O=c1nc(SCc2ccncc2)c2c(n1CCO)CCCC2,-41.97%,4.379%,14.1%
O=C(NC[C@H]1CCCC[C@H]1O)c1cccc2[nH]c(-c3cccs3)nc12,101.4%,7.717%,31.17%
[H][C@@]12CS(=O)(=O)C[C@]1([H])N(C(=O)c1cc(C(C)C)on1)CCN2CC=C(C)C,-9.996%,-44.07%,21.42%
NC(=O)C1CCN(C(=O)CCSCc2ccc(Cl)c(Cl)c2)CC1,5.197%,20.13%,-17.87%
CCCC1(NC(=O)C(c2ccccc2C)N(C)C)CC1 (stereo not given),4.231%,11.81%,20.42%
[H][C@]12CCN[C@@]1([H])CN(C(=O)CC1CC1)C2,6.106%,-2.951%,0.388%
CCn1ncnc1C(C)NC(=O)COc1ccc(Cl)cc1Cl (stereo not given),-,-27.84%,2.589%
CC1(C)OCC2(CO1)CN(S(=O)(=O)c1ccc(Br)s1)C2,-5.723%,4.633%,0.1603% and -13.82%
O=C(NCC1Cn2nnc(-c3ccncc3)c2CO1)c1ccsc1.O=C(O)C(F)(F)F (stereo not given),-34.41%,-24.27%,-5.838%
Cc1nccc(N2CCCC(C)(c3[nH]ncc3C(N)=O)C2)n1 (stereo not given),-,-,24.9%
COc1ccc(-c2nnc(SC(C)C(=O)NC3CC3)[nH]2)c(OC)c1 (stereo not given),23.26%,0.9553%,14.69%
COC(=O)c1ccc(-c2ccc(/C=C3\C(=O)NC(=N)N3C)o2)cc1,-55.71%,-2.551%,9.119% and 26.56%
Cn1ncc2c(N[C@@H]3CS(=O)(=O)C[C@H]3O)nc(C(C)(C)C)nc21,0.7548%,-,6.548%
O=C(CC1CC1)N1CCN(Cc2ccncc2)c2ncccc2C1.O=C(O)C(F)(F)F.O=C(O)C(F)(F)F,-7.711%,2.699%,-1.398%
Cc1cc2nc(-c3ccccc3)cc(NCC3CCS(=O)(=O)C3)n2n1 (stereo not given),6.285%,20.14%,19.45%
[H][C@@]12CN(c3cnccn3)C[C@]1([H])N(CCCc1ccc(F)cc1)C(=O)O2,-3.339%,10.97%,-2.183%
CCOc1cccc(COC(=O)c2cc(C)on2)n1,-13.9%,9.663%,-40.96%
CCOC(C)c1nccn1CC(=O)Nc1cc(C)on1 (stereo not given),-1.93%,1.856%,17.11%
[H][C@]12CC[C@]([H])(CC(=O)NC1)N2C(=O)CCc1ccsc1,5.085%,-26.47%,22.01%
CCCn1ncc(C(=O)NC2CCN(CC3CCCO3)CC2)c1C (stereo not given),-18.46%,-2.741%,18.59%
CCc1cc(O)nc(C2CCCN2C(=O)COC)n1 (stereo not given),3.243%,-37.14%,18.71% and 7.013%
Cc1nc(CN2Cc3cn(C)nc3C(COCC3CC3)C2)cs1 (stereo not given),-10.74%,-16.87%,-35.15%
O=C(NCCCSC1CCCCC1)C1NCCc2[nH]cnc21 (stereo not given),5.678%,-8.949%,17.71%
[H][C@@]12CCN(C(=O)Cc3csc4ccccc34)C[C@]1([H])OCCNC2=O,-39.44%,-47.31%,22.22%
Cc1nnc(CN2CCN(CCOc3ccccc3C#N)CC2)n1C,42.27%,-5.838%,4.774%
CNc1cc(C)nc(N2CCC3(CC2)[C@H](O)C[C@@H]3OCCN(C)C)n1,-12.79%,-2.526%,5.267%
[H][C@]12CC[C@]([H])(CN(C)C1)N(C(=O)c1ccc(OC)c(Cl)c1)C2,-15.06%,8.409%,-26.41%
COc1cc(NCC(c2ccccn2)N2CCOCC2)ncn1 (stereo not given),-,-3.005%,11.75%
O=C(Nc1cn[nH]c1)N(CCCO)C1CCc2ccccc21 (stereo not given),0.7558%,2.271%,-11.63%
O=C(O)C(F)(F)F.[H][C@@]12OCCN(CC3CCOCC3)[C@@]1([H])CC[C@H]2OCC1CC1,-43.29%,1.784%,5.211%

For reference, 4 entries once more:

Compound	T. brucei	Toxoplasma	Leishmania in macrophages
CC1CCN(S(=O)(=O)N2CCn3cccc3C2C)CC1 (stereo not given)	-6.641%	-29.83%	21.85%
CCc1nnc(CN2CCC3(CCC(=O)N(C4CCCC4)C3)CC2)o1	-48.78%	-8.494%	11.77%
Cc1cc2nc(-c3ccccc3)cc(NCC3CCS(=O)(=O)C3)n2n1 (stereo not given)	6.285%	20.14%	19.45%
NC(=O)CCN(CC(=O)NCc1cccs1)c1ccc(F)cc1	-38.12%	-	-10.14%